Inconclusive results, whose numbers are uncertain, are shown with a selection of clear calls. A potency beside an inconclusive call is a rough fit, not a confirmed value. Active and inactive are the calls of the source. The call rests on the fitted dose curve; in most records, active means well fitted curve in the direction sought with a large enough effect; inconclusive means small, poorly fitted or top-dose-only effect, or another doubt; inactive means no such curve, though single readings can be large; an effect the other way counts as inactive or inconclusive.
Assays:
[1] = Quantitative High-Throughput drug screen in 47 multiple myeloma cell lines against the NCATS MIPE library collection: FR4_PLB cell viability assay (AID 1918924; further: nearly all actives have a fitted effect of over 35% in size)
Procedure, shortened: (§1)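 CellTiter-Glo luminescence (ATP) after 48 h compound exposure, 37C/5% CO2; 500 cells/well; MIPE 4.0 approved/investigational drugs pinned in; DMSO = 100%, media only = 0% viability.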

[2] = Quantitative High-Throughput drug screen in 47 multiple myeloma cell lines against the NCATS MIPE library collection: Delta47_JCRB cell viability assay (AID 1918925; further: nearly all actives have a fitted effect of over 45% in size); conditions: Delta47 myeloma viability, CellTiter-Glo ATP, 48 h; viability (% of DMSO): at 45.8 µM (top of the series)
Procedure, shortened: (§2)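 Luminescent ATP measurement with CellTiter-Glo gives viability, scaled between DMSO-only wells (100%) and media-only wells (0%). Cells, 500 per well, faced library compounds for 48 hours at 37C.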

[3] = Quantitative High-Throughput drug screen in 47 multiple myeloma cell lines against the NCATS MIPE library collection: EJM_DSMZ cell viability assay (AID 1918926; further: nearly all actives have a fitted effect of over 30% in size)
Procedure, shortened: as §2

[4] = Quantitative High-Throughput drug screen in 47 multiple myeloma cell lines against the NCATS MIPE library collection: ARP1_JJKsccF8 cell viability assay (AID 1918928; further: nearly all actives have a fitted effect of over 40% in size)
Procedure, shortened: (§3)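 ATP readout (CellTiter-Glo), 48 h drug incubation, 37 °C/5% CO2, 500 cells per well; normalisation to DMSO (100%) and media-only (0%) controls.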

[5] = Quantitative High-Throughput drug screen in 47 multiple myeloma cell lines against the NCATS MIPE library collection: ARD_JJKsccE7 cell viability assay (AID 1918929); conditions: ARD myeloma cell line viability, CellTiter-Glo, 48 h; viability: at 45.8 µM (top of the series)
Procedure, shortened: as §2

[6] = Quantitative High-Throughput drug screen in 47 multiple myeloma cell lines against the NCATS MIPE library collection: KHM11_PLB cell viability assay (AID 1918962); conditions: KHM11 myeloma cell viability, CellTiter-Glo ATP luminescence, 48 h; series mostly up to 45.8 µM; further: nearly all actives have a fitted effect of over 35% in size
Procedure, shortened: as §1

[7] = Quantitative High-Throughput drug screen in 47 multiple myeloma cell lines against the NCATS MIPE library collection: JIM3_ECACC cell viability assay (AID 1918963; further: nearly all actives have a fitted effect of over 35% in size)
Procedure, shortened: as §1

[8] = Quantitative High-Throughput drug screen in 47 multiple myeloma cell lines against the NCATS MIPE library collection: JIM1_ECACC cell viability assay (AID 1918964); conditions: JIM1 myeloma viability, CellTiter-Glo ATP luminescence, 48 h; viability (% of DMSO): at 45.8 µM (top of the series)
Procedure, shortened: as §2

[9] = Quantitative High-Throughput drug screen in 47 multiple myeloma cell lines against the NCATS MIPE library collection: JJN3_DSMZ cell viability assay (AID 1918966; further: nearly all actives have a fitted effect of over 50% in size); conditions: JJN3 myeloma cells viability, CellTiter-Glo ATP, 48 h; viability, % of DMSO: at 45.8 µM (top of the series)
Procedure, shortened: as §2

[10] = Quantitative High-Throughput drug screen in 47 multiple myeloma cell lines against the NCATS MIPE library collection: Karpas25_ECACC cell viability assay (AID 1918968; further: nearly all actives have a fitted effect of over 35% in size); conditions: Karpas25 myeloma viability, CellTiter-Glo ATP, 48 h; viability (% of control): at 45.8 µM (top of the series)
Procedure, shortened: as §2

[11] = Quantitative High-Throughput drug screen in 47 multiple myeloma cell lines against the NCATS MIPE library collection: KMS27_JCRB cell viability assay (AID 1918970); conditions: KMS27 myeloma cells, CellTiter-Glo ATP viability, 48 h; viability (% of DMSO): at 45.8 µM (top of the series); further: nearly all actives have a fitted effect of over 30% in size
Procedure, shortened: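 Luminescent ATP read-out (CellTiter-Glo, 5 min at room temperature) after 48 h compound exposure of 500 KMS27_JCRB cells per well; DMSO wells define full viability and media-only wells zero.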

[12] = Quantitative High-Throughput drug screen in 47 multiple myeloma cell lines against the NCATS MIPE library collection: AMO1_DSMZ cell viability assay (AID 1918927; further: nearly all actives have a fitted effect of over 30% in size)
Procedure, shortened: as §2

[13] = Quantitative High-Throughput drug screen in 47 multiple myeloma cell lines against the NCATS MIPE library collection: KMM1_JCRB cell viability assay (AID 1918960); conditions: KMM1 myeloma viability, CellTiter-Glo ATP luminescence, 48 h; viability (% of DMSO): at 45.8 µM (top of the series); further: nearly all actives have a fitted effect of over 30% in size
Procedure, shortened: as §3

[14] = Quantitative High-Throughput drug screen in 47 multiple myeloma cell lines against the NCATS MIPE library collection: Karpas417_ECACC cell viability assay (AID 1918961); conditions: Karpas417 myeloma viability, CellTiter-Glo ATP luminescence, 48 h; viability (% of DMSO): at 45.8 µM (top of the series)
Procedure, shortened: (§4)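 Myeloma cells (500 per well) were exposed to MIPE 4.0 compounds by pin transfer and incubated 48 hours at 37C, 5% CO2. Viability was read as ATP by CellTiter-Glo luminescence, normalised to DMSO (100%) and media-only (0%) wells.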

[15] = Quantitative High-Throughput drug screen in 47 multiple myeloma cell lines against the NCATS MIPE library collection: H1112_PLB cell viability assay (AID 1918967; further: nearly all actives have a fitted effect of over 30% in size)
Procedure, shortened: as §2

[16] = test system: Nanoluciferase (engineered Oplophorus gracilirostris luciferase); assay: Primary Nanoluciferase (NLuc) qHTS assay for identification of artifact compounds. (AID 1845222)
Procedure, shortened: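 Concentration-response data were obtained by luminescence after 5 min with Nano-Glo substrate at 1:100. The enzyme was diluted S16 NLuc-expressing cell medium, preincubated with compound for 15 min at RT. Curves were fitted with a 4-parameter Hill model.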

[17] = Quantitative High-Throughput drug screen in 47 multiple myeloma cell lines against the NCATS MIPE library collection: Karpas620_DSMZ cell viability assay (AID 1918959); conditions: Karpas620 myeloma viability, CellTiter-Glo ATP luminescence, 48 h; viability (% of DMSO): at 45.8 µM (top of the series); further: nearly all actives have a fitted effect of over 30% in size
Procedure, shortened: as §1

[18] = Quantitative High-Throughput drug screen in 47 multiple myeloma cell lines against the NCATS MIPE library collection: INA6_PLB cell viability assay (AID 1918965; further: nearly all actives have a fitted effect of over 55% in size); conditions: INA6 myeloma viability, CellTiter-Glo ATP luminescence, 48 h; viability (% of control): at 45.8 µM (top of the series)
Procedure, shortened: as §4

[19] = Primary redox qHTS assay for identification of artifact compounds. (AID 1845223)
Procedure, shortened: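 Amplex Red (25 uM) and HRP (250 mU/mL) in HBSS, with compounds for 15 min, then 250 uM DTT for 30 min, room temperature, dark. Fluorescence 525/598 nm read; normalized to DMSO and 10 uM DA3003; Hill fit.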

Measured: Potency
Potency means the concentration at half of the fitted maximal effect.

N#CC1(c2ccc(NC(=O)c3cccnc3NCc3ccncc3)cc2)CCCC1
inactive: [3] | [4] | [5] | [6] | [7] | [8] | [11]
inconclusive: [1] 18.7 µM [cytotoxic, partial curve, poor fit] | [2] 20.9 µM [cytotoxic, partial curve, poor fit] | [9] 33.2 µM [cytotoxic, single point] | [10] 13.2 µM [cytotoxic, partial curve, poor fit]

CS(=O)(=O)N(Cc1ccco1)CC(O)Cn1c2ccccc2c2ccccc21 (stereo unspecified)
inconclusive: [2] 6.62 µM [cytotoxic, partial curve, poor fit] | [3] 9.35 µM [cytotoxic, partial curve, poor fit] | [12] 9.35 µM [cytotoxic, single point] | [5] 0.209 µM [cytotoxic, full curve, poor fit] | [13] 5.26 µM [cytotoxic, partial curve, poor fit] | [14] 0.0083 µM [cytotoxic, full curve, poor fit] | [6] 1.66 µM [rising, full curve, poor fit] | [9] 37.2 µM [cytotoxic, single point]
inactive: [1] | [4] | [8] | [15] | [11]
active: [7] 14.8 µM

CS(=O)(=O)CCNCc1ccc(-c2ccc3ncnc(Nc4ccc(OCc5cccc(F)c5)c(Cl)c4)c3c2)o1
inconclusive: [16] 19 µM [inhibitor, partial curve] | [4] 1.48 µM [cytotoxic, full curve, poor fit] | [9] 26.4 µM [cytotoxic, partial curve, poor fit]
active: [3] 0.0235 µM | [5] 6.62 µM | [14] 6.62 µM | [6] 4.69 µM | [7] 1.18 µM | [8] 6.62 µM | [15] 0.0743 µM

Oc1ccc(OCc2ccccc2)cc1
inconclusive: [2] 13.2 µM [cytotoxic, partial curve] | [13] 0.0935 µM [cytotoxic, full curve, poor fit] | [6] 0.0019 µM [rising, full curve, poor fit] | [18] 0.0026 µM [rising, full curve, poor fit] | [9] 9.35 µM [cytotoxic, full curve, poor fit]
active: [4] 18.7 µM
not listed: [5] | [7] | [11] | [16] | [19]
inactive: all other assays above

COc1ccc(-c2oc3cc(OC)ccc3c2C(=O)c2ccc(C#N)cc2)cc1
inconclusive: [1] 20.9 µM [cytotoxic, partial curve, poor fit] | [2] 0.0021 µM [rising, full curve, poor fit] | [3] 0.0033 µM [rising, full curve, poor fit] | [4] 0.166 µM [rising, full curve, poor fit] | [13] 33.2 µM [cytotoxic, single point] | [14] 0.0093 µM [cytotoxic, full curve, poor fit] | [6] 37.2 µM [cytotoxic, partial curve, poor fit] | [15] 11.8 µM [cytotoxic, single point] | [10] 11.8 µM [cytotoxic, single point]
active: [5] 10.5 µM
inactive: [18] | [9]

COc1cc2nc(-c3ccc(N4CCN(C)CC4)cc3)nc(NCCN3CCOCC3)c2cc1OC
inconclusive: [19] 3.36 µM [activator, full curve, poor fit]
active: [2] 0.148 µM | [17] 0.118 µM | [14] 0.0166 µM | [8] 0.166 µM | [11] 0.0332 µM

Cc1nn(-c2ccccc2)c(C)c1/C=N/N1CCN(Cc2ccccc2)CC1
inactive: [19]

CO[C@H]1C[C@@H]2CC[C@@H](C)[C@@](O)(O2)C(=O)C(=O)N2CCCC[C@@H]2C(=O)O[C@H]([C@H](C)C[C@@H]2CC[C@H](OCCO)[C@H](OC)C2)CC(=O)[C@H](C)C=C(C)[C@@H](O)[C@@H](OC)C(=O)[C@H](C)C[C@H](C)C=CC=CC=C1C
inconclusive: [1] 1.66 µM [cytotoxic, full curve] | [2] 5.26 µM [cytotoxic, partial curve] | [3] 13.2 µM [cytotoxic, partial curve] | [12] 5.9 µM [cytotoxic, partial curve] | [4] 9.35 µM [cytotoxic, partial curve] | [5] 29.6 µM [cytotoxic, single point] | [17] 37.2 µM [cytotoxic, single point] | [13] 10.5 µM [cytotoxic, partial curve] | [14] 0.209 µM [cytotoxic, full curve, poor fit] | [7] 9.35 µM [cytotoxic, partial curve] | [18] 1.66 µM [cytotoxic, partial curve]
active: [9] 6.62 µM | [11] 4.18 µM
inactive: [6]

Cc1ccc(C)c(OCCCC(C)(C)C(=O)O)c1
inconclusive: [3] 0.662 µM [rising, partial curve, poor fit] | [12] 33.2 µM [cytotoxic, single point] | [5] 26.4 µM [cytotoxic, single point] | [17] 37.2 µM [cytotoxic, single point] | [13] 37.2 µM [cytotoxic, single point] | [14] 37.2 µM [cytotoxic, single point] | [6] 0.001 µM [cytotoxic] | [7] 37.2 µM [cytotoxic, single point] | [8] 26.4 µM [cytotoxic, single point] | [15] 33.2 µM [cytotoxic, single point] | [10] 33.2 µM [cytotoxic, single point] | [11] 37.2 µM [cytotoxic, single point]
inactive: [1] | [9]
active: [2] 16.6 µM

O=[N+]([O-])c1ccc(Nc2ccccc2-c2ccccc2)c2nonc12
inconclusive: [1] 33.2 µM [cytotoxic, single point] | [2] 33.2 µM [cytotoxic, single point] | [3] 37.2 µM [cytotoxic, single point] | [12] 33.2 µM [cytotoxic, single point] | [5] 37.2 µM [cytotoxic, single point] | [13] 18.7 µM [cytotoxic, partial curve] | [6] 29.6 µM [cytotoxic, single point] | [7] 33.2 µM [cytotoxic, single point] | [8] 29.6 µM [cytotoxic, single point] | [9] 20.9 µM [cytotoxic, partial curve, poor fit]
active: [17] 20.9 µM | [18] 26.4 µM

COc1ccc(-c2coc3cc(O)cc(O)c3c2=O)cc1
inactive: [1] | [4] | [9] | [10]
inconclusive: [3] 0.0187 µM [rising, full curve, poor fit] | [12] 23.5 µM [cytotoxic, partial curve] | [5] 37.2 µM [cytotoxic, single point] | [13] 23.5 µM [cytotoxic, partial curve] | [6] 0.0743 µM [rising, full curve] | [18] 37.2 µM [cytotoxic, single point] | [15] 0.0526 µM [rising, full curve, poor fit] | [11] 37.2 µM [cytotoxic, single point]

O=C(Nc1nc2ccccc2n1CCN1CCOCC1)c1cccc([N+](=O)[O-])c1
active: [5] 4.18 µM | [14] 4.69 µM | [9] 20.9 µM
inconclusive: [1] 20.9 µM [cytotoxic, partial curve, poor fit] | [2] 20.9 µM [cytotoxic, single point] | [4] 20.9 µM [cytotoxic, partial curve] | [6] 7.43 µM [cytotoxic, partial curve, poor fit] | [18] 7.43 µM [cytotoxic, full curve, poor fit]
inactive: [10]

Cc1csc(NC(=O)c2sc3nc4c(c(C(F)(F)F)c3c2N)CCC4)n1
inconclusive: [3] 18.7 µM [cytotoxic, single point] | [4] 23.5 µM [cytotoxic, partial curve, poor fit] | [18] 0.0042 µM [rising, full curve, poor fit] | [9] 0.833 µM [cytotoxic, full curve, poor fit]
inactive: [1] | [12] | [5] | [13] | [6] | [15] | [11]

Reference: PubChem BioAssay (NCATS)
